Values quoted from earlier work, collected in patent publication US7498360B2, “Method and compositions for local treatment of Meniere's disease, tinnitus and/or hearing loss” (Synphora AB, priority 2001, dated 2009).
At least one structure is not confirmed: it was looked up by name or label, or the drawing left a doubt.

Assays:
tinnitus = conditions: given systemically (orally); cited from earlier work
hearing threshold = conditions: after 1 hour intravenous infusion, similar to that caused by furosemide; cited from earlier work

| Compound | effect on tinnitus (tinnitus) | hearing threshold (hearing threshold) |
| --- | --- | --- |
| CCCCC(C)(O)C/C=C/[C@H]1[C@H](O)CC(=O)[C@@H]1CCCCCCC(=O)OC (mixture of isomers) [misoprostol] | some effect | – |
| CS(=O)(=O)NC(=O)CCC/C=C\C[C@H]1C(=O)C[C@@H](O)[C@@H]1/C=C/[C@@H](O)COc1ccccc1 [sulprostone] | – | short hearing threshold shift |
